Assay results as given in patent US10435385B2, “Amide derivatives, process for preparation thereof and use thereof as insecticide” (MITSUI CHEMICALS, INC., priority 2004, dated 2019).
Some entries share one result that the patent states for a list of compounds.

Legend:
Format in all cases: in vivo
[1] = tested on: small brown planthopper (Laodelphax striatellus); assay: Insecticidal testing against small brown planthopper (acetone solution sprayed on rice); settings: concentration of 1000 ppm; survival rate investigated after 6 days; 25° C.
[2] = tested on: diamondback moth (Plutella xylostella); assay: Insecticidal testing against diamondback moth (cabbage leaf dip, second-stage larvae); settings: concentration of 100 ppm, survival rate investigated after 3 days, 25° C.
[3] = tested on: common cutworm (Spodoptera litura); assay: Insecticidal testing against common cutworm (cabbage leaf dip, second-stage larvae); settings: concentration of 100 ppm, survival rate investigated after 3 days, 25° C.

Compound	pesticidal rate [1] [%]	pesticidal rate [2] [%]	pesticidal rate [3] [%]
Cc1cc(C(F)(C(F)(F)F)C(F)(F)F)cc(C)c1NC(=O)c1cccc(NC(=O)c2ccccc2F)c1 [compound 17]	≥ 70	≥ 70	≥ 70
Cc1cc(C(F)(C(F)(F)F)C(F)(F)F)cc(C)c1NC(=O)c1cccc(NC(=O)c2ccc(N(C)C)cc2)c1F [compound 620]	≥ 70	≥ 70	
Cc1cc(C(F)(C(F)(F)F)C(F)(F)F)cc(C)c1NC(=O)c1cccc(NC(=O)c2ccccc2[N+](=O)[O-])c1 [compound 31]	≥ 70	≥ 70	≥ 70
Cc1cc(C(F)(C(F)(F)F)C(F)(F)F)cc(C)c1NC(=O)c1cccc(N(C)C(=O)c2ccc([N+](=O)[O-])cc2F)c1F [compound 1235]	≥ 70	≥ 70	≥ 70
Cc1cc(C(F)(C(F)(F)F)C(F)(F)F)cc(C)c1NC(=O)c1cccc(N(C)C(=O)c2ccc(F)cc2)c1F [compound 1220]	≥ 70	≥ 70	≥ 70
Cc1cc(C(F)(C(F)(F)F)C(F)(F)F)cc(C)c1NC(=O)c1cccc(N(C)C(=O)C2CCCO2)c1 (stereo not drawn) [compound 1043]	≥ 70	≥ 70	≥ 70
Cc1cc(C(F)(C(F)(F)F)C(F)(F)F)cc(C)c1NC(=O)c1cccc(N(C)C(=O)c2ccccc2F)c1F [compound 1218]	≥ 70	≥ 70	≥ 70
Cc1cc(C(F)(C(F)(F)F)C(F)(F)F)cc(C)c1NC(=O)c1cccc(N(C)C(=O)c2ccc(Cl)nc2)c1F [compound 1247]	≥ 70	≥ 70	≥ 70
CCc1cc(C(F)(C(F)(F)F)C(F)(F)F)cc(C)c1NC(=O)c1cccc(NC(=O)c2ccccc2)c1 [compound 164]	≥ 70	≥ 70	≥ 70
Cc1cc(C(F)(C(F)(F)F)C(F)(F)C(F)(F)F)cc(C)c1NC(=O)c1cccc(N(C)C(=O)c2cccnc2Cl)c1F (stereo not drawn) [compound 1293]	≥ 70	≥ 70	≥ 70
Cc1cc(C(F)(C(F)(F)F)C(F)(F)F)cc(C)c1NC(=O)c1cccc(N(C)C(=O)c2ccc(F)cc2Cl)c1F [compound 1237]	≥ 70	≥ 70	≥ 70
CCc1cc(C(F)(C(F)(F)F)C(F)(F)F)cc(Br)c1NC(=O)c1cccc(NC(=O)c2ccccc2)c1 [compound 169]	≥ 70	≥ 70	≥ 70
Cc1cc(C(F)(C(F)(F)F)C(F)(F)F)cc(C)c1NC(=O)c1cccc(N(C)C(=O)c2ccc(F)cc2F)c1F [compound 1229]	≥ 70	≥ 70	≥ 70
CN(C(=O)c1ccccc1)c1cccc(C(=O)N(C)c2c(Br)cc(SC(F)(F)C(F)(F)C(F)(F)F)cc2Br)c1 [compound 1607]	≥ 70	≥ 70	≥ 70
Cc1cc(C(F)(C(F)(F)F)C(F)(F)F)cc(C)c1NC(=O)c1cccc(NC(=O)c2cccnc2Cl)c1F [compound 639]	≥ 70	≥ 70	≥ 70
Cc1cc(C(F)(C(F)(F)F)C(F)(F)F)cc(C)c1NC(=O)c1ccc(F)c(N(C)C(=O)c2ccc(C#N)cc2)c1 [compound 1465]	≥ 70	≥ 70	≥ 70
Cc1cc(C(F)(C(F)(F)F)C(F)(F)F)cc(C)c1NC(=O)c1ccc(F)c(NC(=O)c2cccnc2Cl)c1 [compound 657]	≥ 70	≥ 70	≥ 70
Cc1cc(C(F)(C(F)(F)F)C(F)(F)F)cc(C)c1NC(=O)c1cccc(NC(=O)c2cnccn2)c1 [compound 122]	≥ 70	≥ 70	≥ 70
Cc1cc(C(F)(C(F)(F)F)C(F)(F)F)cc(C)c1NC(=O)c1cccc(NC(=O)c2ccc(F)cc2Cl)c1F [compound 630]	≥ 70	≥ 70	≥ 70
Cc1cc(C(F)(C(F)(F)F)C(F)(F)C(F)(F)F)cc(C)c1NC(=O)c1cccc(N(C)C(=O)c2ccccc2)c1F (stereo not drawn) [compound 1255]	≥ 70	≥ 70	≥ 70
CN(C(=O)c1cccnc1Cl)c1cccc(C(=O)N(C)c2c(Br)cc(SC(F)(F)C(F)(F)C(F)(F)F)cc2Br)c1 [compound 1645]	≥ 70	≥ 70	≥ 70
Cc1cc(C(F)(C(F)(F)F)C(F)(F)F)cc(C)c1NC(=O)c1cccc(NC(=O)c2c(F)cccc2F)c1F [compound 624]	≥ 70	≥ 70	≥ 70

Compound	pesticidal rate [1] [%]	pesticidal rate [2] [%]	pesticidal rate [3] [%]
Cc1cc(C(F)(C(F)(F)F)C(F)(F)F)cc(C)c1N(C)C(=O)c1cccc(N(C)C(=O)c2ccccc2)c1F [compound 1697]	≥ 70	≥ 70	≥ 70
Cc1cc(C(F)(C(F)(F)F)C(F)(F)F)cc(C)c1NC(=O)c1cccc(NC(=O)c2cccc(F)c2)c1F [compound 611]	≥ 70	≥ 70	≥ 70
CCCc1cc(C(F)(C(F)(F)F)C(F)(F)F)cc(I)c1NC(=O)c1cccc(N(C)C(=O)c2ccc(C#N)cc2)c1 [compound 1097]	≥ 70	≥ 70	≥ 70
Cc1cc(C(F)(C(F)(F)F)C(F)(F)F)cc(C)c1NC(=O)c1ccc(F)c(NC(=O)c2ccc(F)cc2)c1 [compound 654]	≥ 70	≥ 70	≥ 70
O=C(Nc1cccc(C(=O)Nc2c(Br)cc(C(F)(C(F)(F)F)C(F)(F)F)cc2SC(F)(F)F)c1)c1ccccc1 [compound 210]	≥ 70	≥ 70	≥ 70
N#Cc1cc(C(F)(C(F)(F)F)C(F)(F)F)cc(Br)c1NC(=O)c1cccc(NC(=O)c2ccccc2F)c1 [compound 197]	≥ 70	≥ 70	≥ 70
Cc1cc(C(F)(C(F)(F)F)C(F)(F)F)cc(C)c1NC(=O)c1cccc(NC(=O)c2ccc([N+](=O)[O-])cc2F)c1F [compound 628]	≥ 70	≥ 70	≥ 70
CS(=O)(=O)c1cc(C(F)(C(F)(F)F)C(F)(F)F)cc(Cl)c1NC(=O)c1cccc(NC(=O)c2ccccc2F)c1 [compound 201]	≥ 70	≥ 70	≥ 70
CS(=O)(=O)c1cc(C(F)(C(F)(F)F)C(F)(F)F)cc(Br)c1NC(=O)c1cccc(NC(=O)c2ccc([N+](=O)[O-])cc2)c1 [compound 206]	≥ 70	≥ 70	
Cc1cc(C(F)(C(F)(F)F)C(F)(F)C(F)(F)F)cc(C)c1NC(=O)c1cccc(N(C)C(=O)c2ccc([N+](=O)[O-])cc2)c1F (stereo not drawn) [compound 1261]		≥ 70	≥ 70
O=C(Nc1c(Br)cc([S+]([O-])C(F)(F)C(F)(F)C(F)(F)F)cc1Br)c1cccc(NC(=O)c2ccccc2F)c1 (stereo not drawn) [compound 338]		≥ 70	≥ 70
Cc1cc(C(F)(C(F)(F)F)C(F)(F)F)cc(C)c1NC(=O)c1cccc(NC(=O)c2cccc([N+](=O)[O-])c2)c1 [compound 32]		≥ 70	≥ 70
CSc1ncccc1C(=O)Nc1cccc(C(=O)Nc2c(C)cc(C(F)(C(F)(F)F)C(F)(F)F)cc2C)c1 [compound 114]		≥ 70	≥ 70
Cc1cc(C(F)(C(F)(F)F)C(F)(F)F)cc(Br)c1N(C)C(=O)c1cccc(NC(=O)c2ccccc2)c1 [Compound No. 1479, N-(2-bromo-4-heptafluoroisopropyl-6-methyl)phenyl-N-methyl 3-(benzoylamino)benzamide]		≥ 70	≥ 70
Cc1cc(C(F)(C(F)(F)F)C(F)(F)F)cc(C)c1N(C)C(=O)c1cccc(NC(=O)c2ccccc2)c1 [Compound No. 1478, N-(2,6-dimethyl-4-heptafluoroisopropyl)phenyl-N-methyl 3-(benzoylamino)benzamide]		≥ 70	≥ 70
Cc1cc(C(F)(C(F)(F)F)C(F)(F)F)cc(C(C)C)c1NC(=O)c1cccc(NC(=O)c2ccccc2F)c1 [compound 177]		≥ 70	≥ 70
Cc1cccc(C(=O)Nc2cccc(C(=O)Nc3c(C)cc(C(F)(C(F)(F)F)C(F)(F)F)cc3C)c2)c1 [Compound No. 12]		≥ 70	≥ 70
O=C(Nc1c(Br)cc(S(=O)(=O)C(F)(F)C(F)(F)C(F)(F)F)cc1Br)c1cccc(NC(=O)c2cccnc2Cl)c1 [compound 414]		≥ 70	≥ 70
Cc1cc(C(F)(C(F)(F)F)C(F)(F)F)cc(C)c1NC(=O)c1cccc(NC(=O)c2ccc(C(F)(F)F)cc2)c1 [compound 39]		≥ 70	≥ 70
O=C(Nc1cccc(C(=O)Nc2c(Cl)cc(C(F)(F)C(F)(F)F)cc2Cl)c1)c1ccccc1 [Compound No. 2]		≥ 70	≥ 70
O=C(Nc1c(Cl)cc(SC(F)(C(F)(F)F)C(F)(F)F)cc1Cl)c1cccc(NC(=O)c2ccccc2F)c1 [compound 330]		≥ 70	≥ 70
Cc1cc(C(F)(C(F)(F)F)C(F)(F)C(F)(F)F)cc(C)c1NC(=O)c1cccc(NC(=O)c2cccnc2Cl)c1F (stereo not drawn) [compound 699]		≥ 70	≥ 70
